# Library screen at single concentrations

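Whole-cell growth test on Mycobacterium tuberculosis, read after 3 days in glucose-containing 7H9 medium; the read-out is not stated. Concentration: 500 µM. The record gives no direction; compounds that gave an IC50 in retests scored well above the rest, so higher reads as more growth inhibition. Of about 18,000 compounds tested this way, about 1,400 (7.9%) reached 50% or more in at least one test.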

Results are given as percent effect.
How 0% and 100% were set is not recorded. Most values in the screen are low, and negative values occur.
Compounds were drawn at random from those tested, without regard to their results.

- NC1CCCN(C2CCCCC2)C1=O (configuration not stated) | 25.04%
- Cc1nc(CSCC(=O)N2CCCC2)cs1 | 33.82%
- CC1(C)CCCN1C(=O)NCCCNC(=O)C1CCC1 | 1.491%
- CCNC(=O)C(C)Nc1nc2ccccc2o1 (configuration not stated) | 12.3%
- COCC(C)NCc1ccccc1CN1CCCC1=O (configuration not stated) | 4.86%
- COCCn1ccnc1CN(C)Cc1nnc(C)o1 | 4.742%
- Cc1nc2c(c(NCc3ccc(N)nc3)n1)CCCC2 | 4.687%
- O=C(CN1C(=O)CC2(CCCCC2)C1=O)c1ccc[nH]1 | 12.03%
- Cc1nccn1CCCNC(=O)c1cn(CCN)nn1 | 2.024%
- CCc1cc(C(=O)NCCN2CCCC2)cc(=O)[nH]1 | -7.774%
- CN(C)[C@H]1CCN(C(=O)CCc2ccncc2)C1 | -18.69%
- O=C1CCC(N2CCNCC2)CCN1 (configuration not stated) | -1.965%
- CC(C)(C(=O)N1CCNCC1)c1ccccc1 | 7.88%
- Cc1noc(C)c1C(=O)N1CCCN(C)CC1 | 5.833%
- COc1c(F)cccc1C(=O)NC(C)c1n[nH]c(C)n1 (configuration not stated) | 3.846%
- COC(=O)CNC(=O)c1nccc2ccccc12 | 12.9%
- COc1cc(CN)ccn1 | -1.778%
- CN(CCCOCc1ccccc1)C(N)=O | 5.733%
- CCNC(=O)CNc1nnnn1-c1ccc(C)cc1 | -0.248%
- O=C(C(O)c1ccccc1)N(CCO)Cc1ccsc1 (configuration not stated) | 23.24%
- CC(CO)NC(=O)NCc1ccccc1 (configuration not stated) | 14.55%
- CCN(CC)C(=O)c1cnn(C)c1-n1cccc1 | 25.04%
- O=C(c1cc(C2CC2)on1)N1CCN2CCC1CC2 | -6.955%
- CCNCC(C)NC(=O)OC(C)(C)C (configuration not stated) | 5.008%
- CCC(CC)C(CN)N1CCCC1 (configuration not stated) | 49.44%
- COCCC(=O)NCC(OC)c1cccc(Cl)c1 (configuration not stated) | 30.69%
- COCCNC(=O)CN1CCCC1 | 5.284%
- CCN1CCCCC1c1nc(-c2ccccn2)no1 (configuration not stated) | 7.821%
- O=C(Cc1cccc(O)c1)N1CCc2cnccc21 | 33.25%
- OC1(Cc2ccccc2F)CCNCC1 | 17.57%
- COCCn1ccnc1CN(C)[C@H]1COC[C@@H]1O | -19.07%
- CCN1CCN(Cc2nnnn2C2CC2)CC1 | -5.258%
- O=S(=O)(c1ccc(Cl)s1)N1CCNCC1 | 28.52%
- CCN1CCN(C(C)CNC(=O)c2scnc2C)CC1 (configuration not stated) | 7.653%
- N#Cc1c/c(=N\CC2CCCO2)cc[nH]1 (configuration not stated) | 5.506%
- CN1CCCC1C(=O)N1CCNCC1 (configuration not stated) | -8.047%
- NC(=O)CN1CCCN(C(=O)c2sccc2Br)CC1 | 15.84%
- NCC(CO)Cc1c(F)cccc1Cl (configuration not stated) | 30.01%
- CO[C@H]1CNCC1NC(=O)c1cc2ccccc2n1C (some centres not stated) | 58.05%
- CNC(=O)Cc1ccccc1NC(=O)c1csc(C)n1 | 12.66%
- CN(C)S(=O)(=O)NCCC(C)(C)C(F)(F)F | 16.35%
- CNc1snc(C)c1C(=O)Nc1ncccc1O | -10.66%
- CC(NC(=O)c1ccc(Br)cc1)C(=O)N1CCOCC1 (configuration not stated) | 7.293%
- CN(CC(N)=O)C(=O)c1ccc(-c2ccccc2F)s1 | -0.08332%
- O=C(CN(Cc1ccsc1)C1CC1)N1CCNC1=O | 1.257%
- OCC1CCN(Cc2ccccc2)C1 (configuration not stated) | 16.29%
- CCOc1ccc(C(=O)NC2CCCCNC2=O)cc1 (configuration not stated) | -11.49%
- CC1COCCN1C(=O)NCCC1=CCOCC1 (configuration not stated) | 4.922%

Some entries from above, unchanged:

compound	Percent Effect
OCC1CCN(Cc2ccccc2)C1 (configuration not stated)	16.29
CC(CO)NC(=O)NCc1ccccc1 (configuration not stated)	14.55
NC(=O)CN1CCCN(C(=O)c2sccc2Br)CC1	15.84
O=C(c1cc(C2CC2)on1)N1CCN2CCC1CC2	-6.955

Source: ChEMBL document CHEMBL3988442, “University of Dundee, Small-Polar-MMV Screening Library” (2021).